{"source": "PubChem BioAssay AID540256", "about": "(National Center for Advancing Translational Sciences (NCATS), 2011)", "note": "Out of some 300,000 compounds screened, about 3,700 (1.2%) were called active. The shares of active, inactive and inconclusive entries below differ from those in the screen. The call rests on the fitted dose curve; tested in HEK293 cells. Potencies beside an inconclusive call are fits to weak or partial responses and may not hold up. On the % scale 0 is the no-effect control and ±100 the full control effect; potency means the concentration at half of the fitted maximal effect.", "data": [{"test": "qHTS for Inhibitors of binding or entry into cells for Lassa Virus; further: nearly all actives have a fitted effect of over 50% in size", "settings": "Lassa virus pseudotype entry inhibition, cell reporter; activity change, negative = inhibition: at 37.9 µM (top of the series) unless noted", "values": [{"smiles": "O=C(CN1CCN(c2ccccc2)CC1)Nc1cccc([N+](=O)[O-])c1", "Potency": "inconclusive: 11.2 µM [inhibitor, partial curve]"}, {"smiles": "COc1ccc(/C=C/C(=O)Nc2cccc(S(=O)(=O)N3CCOCC3)c2)cc1OC", "Potency": "inconclusive: 35.5 µM [inhibitor, single point]"}, {"smiles": "CC(=O)NCc1ccc(C(=O)CCl)cc1", "activity change, negative = inhibition": "inactive: -8.29% [at 46.1 µM]"}, {"smiles": "Cc1ccc(S(=O)(=O)N2CCN(C(=O)CCC(=O)NCc3cccc(C(F)(F)F)c3)CC2)cc1", "activity change, negative = inhibition": "inactive: 6.41%"}, {"smiles": "Nc1c(N(CCO)C(=O)c2ccccc2OCc2ccccc2Cl)c(=O)[nH]c(=O)n1Cc1ccccc1", "Potency": "inconclusive: 12.6 µM [inhibitor, partial curve, poor fit]"}, {"smiles": "CC1=C(C(=O)OC2CCCCCCC2)C(c2cccc(O)c2)NC(=O)N1", "note": "(stereo unspecified)", "Potency": "active: 1.83 µM"}, {"smiles": "Cc1cc(=O)oc2cc(NC(=O)c3cccc(Br)c3)ccc12", "Potency": "inconclusive: 0.708 µM [activator, full curve, poor fit]"}, {"smiles": "CSc1cccc(NC(=O)Nc2ccccc2OCc2cc(=O)n3cc(C)ccc3n2)c1", "Potency": "inconclusive: 12.6 µM [inhibitor, single point]"}, {"smiles": "O=c1c2ccccc2nc2n1CCS2(=O)=O", "Potency": "inconclusive: 35.5 µM [inhibitor, single point]"}, {"smiles": "COC(c1ccccc1)c1nnc(CCC(=O)N2CCCCCCC2)o1", "note": "(stereo unspecified)", "activity change, negative = inhibition": "inactive: 10.4% [at 46.1 µM]"}, {"smiles": "CCOc1ccc2nc(SCC(=O)N(C)C)[nH]c2c1", "Potency": "inconclusive: 18.3 µM [activator, partial curve, poor fit]"}, {"smiles": "CCOC(=O)Cc1c(C)nc2cc(-c3ccc(C(C)(C)C)cc3)[nH]n2c1=O", "activity change, negative = inhibition": "inactive: 1.96%"}, {"smiles": "Brc1ccc(-c2nnc(-c3ccccc3)o2)o1", "Potency": "inconclusive: 23.1 µM [inhibitor, single point]"}, {"smiles": "CC(Sc1ccccn1)C(=O)Nc1ccccc1", "note": "(stereo unspecified)", "activity change, negative = inhibition": "inactive: 47.4% [at 14.3 µM]"}, {"smiles": "Nc1nn(-c2cccc(F)n2)cc1-c1ccccc1", "Potency": "inconclusive: 11.2 µM [inhibitor, single point]"}, {"smiles": "COc1ccc2nc(N(CCN(C)C)C(=O)c3ccc(C(=O)c4ccccc4)cc3)sc2c1", "Potency": "inconclusive: 3.16 µM [activator, full curve, poor fit]"}, {"smiles": "CCCc1ccc(O)c(N=Cc2cc(Br)cc(OCC)c2O)c1", "Potency": "inconclusive: 12.6 µM [inhibitor, partial curve, poor fit]"}, {"smiles": "C=CCN1N=C(/C=C/c2ccc(C)cc2)CCC1=O", "activity change, negative = inhibition": "inactive: 1.03%"}, {"smiles": "Cc1csc(CN(C)C(=O)c2cn(Cc3cccc4ccccc34)nn2)n1", "activity change, negative = inhibition": "inactive: 0.807%"}, {"smiles": "COc1cccc(C(=O)Nc2ccc3[nH]ncc3c2)c1", "Potency": "inconclusive: 11.2 µM [inhibitor, partial curve]"}, {"smiles": "CCOc1ccc(NC(=O)c2cccc(OC(=S)N3CCC(C)CC3)c2)cc1", "activity change, negative = inhibition": "inactive: 15.2%"}, {"smiles": "O=C(Nc1ccc([N+](=O)[O-])cn1)c1ccc2c(c1)OCO2", "activity change, negative = inhibition": "inactive: 25.8%"}, {"smiles": "Cc1ccc(NC(=O)CSc2nc3ccccc3c(=O)n2CCCC(=O)NCCCN2CCOCC2)cc1C", "Potency": "inconclusive: 35.5 µM [inhibitor, single point]"}, {"smiles": "CN1CCN(C(=O)C2CCN(c3ncc(C(F)(F)F)cc3Cl)CC2)CC1", "Potency": "inconclusive: 6.31 µM [activator, partial curve, poor fit]"}, {"smiles": "O=C(CC(=O)c1c(F)cccc1Cl)c1ccccc1O", "Potency": "inconclusive: 1.26 µM [activator, full curve, poor fit]"}, {"smiles": "Nc1nc2c(C(=O)N3CCOCC3)nnn2c2ccccc12", "activity change, negative = inhibition": "inactive: -20.9%"}, {"smiles": "O=S(=O)(Nc1cccc(-c2cn3cccnc3n2)c1)c1ccc(Cl)cc1", "activity change, negative = inhibition": "inactive: -0.46%"}, {"smiles": "COc1ccc(/C=C/C(=O)NC(C)(C)C)cc1S(=O)(=O)N1CCOCC1", "Potency": "inconclusive: 2.91 µM [inhibitor, partial curve, poor fit]"}, {"smiles": "CCOC(=O)CNC(=O)COc1ccc(Cl)cc1Br", "Potency": "inconclusive: 32.6 µM [activator, partial curve, poor fit]"}, {"smiles": "O=C(COC(=O)C1CC1)c1c[nH]c2ccccc12", "Potency": "inconclusive: 5.8 µM [activator, single point]"}, {"smiles": "Cc1ccc(S(=O)(=O)c2nnn(-c3ccc(F)c(Cl)c3)c2N)cc1", "Potency": "inconclusive: 1.12 µM [inhibitor, full curve, poor fit]"}, {"smiles": "CCN(CC)S(=O)(=O)c1ccc(OC)c(NC(=O)C2CC(=O)N(c3ccc4c(c3)OCCO4)C2)c1", "note": "(stereo unspecified)", "Potency": "inconclusive: 8.91 µM [inhibitor, partial curve, poor fit]"}, {"smiles": "O=C(CN=C1NC(=O)C(c2ccccc2)(c2ccccc2)N1)NCc1ccc(F)cc1", "activity change, negative = inhibition": "inactive: -1.89%"}, {"smiles": "CN(C)c1nc(NC(C)(C)C)nc(NC(C)(C)C)n1", "activity change, negative = inhibition": "inactive: -7.71%"}, {"smiles": "CCc1ccccc1NC1=NCC(=O)N1Cc1ccccc1", "Potency": "inconclusive: 0.0891 µM [activator, full curve, poor fit]"}, {"smiles": "Cc1cc(OCC(=O)Nc2cc(-c3nc4ncccc4o3)ccc2C)ccc1Cl", "Potency": "inconclusive: 3.55 µM [activator, full curve]"}, {"smiles": "Cc1cccc(C)c1NC(=O)CSC(=S)N1CCCC1", "Potency": "inconclusive: 1.41 µM [activator, full curve, poor fit]"}, {"smiles": "COCc1cc(=O)[nH]c(-c2ccccc2)n1", "activity change, negative = inhibition": "inactive: -1.6%"}, {"smiles": "c1ccc(-n2cnc3ccccc32)nc1", "activity change, negative = inhibition": "inactive: 14.5%"}, {"smiles": "Cc1ccc2ncccc2c1N", "Potency": "inconclusive: 1.26 µM [inhibitor, single point]"}, {"smiles": "CC(=O)Nc1c(O)nc(SCc2ccc(Cl)cc2)[nH]c1=O", "Potency": "inconclusive: 6.31 µM [inhibitor, partial curve, poor fit]"}, {"smiles": "CC12CCC(C(=O)NNC(=O)c3ccc(F)cc3)(OC1=O)C2(C)C", "note": "(stereo unspecified)", "Potency": "inconclusive: 35.5 µM [inhibitor, single point]"}, {"smiles": "COc1cc(/C=C2/SC(=Nc3ccc(O)cc3)NC2=O)cc(OC)c1O", "Potency": "inconclusive: 1.26 µM [inhibitor, single point]"}, {"smiles": "Cc1cc(S(=O)(=O)NCCCn2ccnc2)c(C)cc1Cl", "activity change, negative = inhibition": "inactive: 5.11% [at 46.1 µM]"}, {"smiles": "CCC1CCCCN1S(=O)(=O)c1ccc(S(=O)(=O)N(Cc2ccccn2)CC2CCCO2)cc1", "note": "(stereo unspecified)", "Potency": "inconclusive: 11.2 µM [inhibitor, single point]"}, {"smiles": "CCn1c(SCc2c(F)cccc2Cl)nc(=O)c2c(C(=O)OC)cc(C3CC3)nc21", "activity change, negative = inhibition": "inactive: 7.04% [at 46.1 µM]"}]}]}
